System: FabH
Test: Recovery of FabH activity after inhibition (dialysis, dithiothreitol)
Assay type: biochemical
Conditions: after inhibition by the compound

Structure (SMILES) | activity of FabH after dialysis | activity of FabH after treatment with dithiothreitol (DTT)
COC1C(=O)N(SC)C1c1ccccc1Cl (stereo not shown) [Compound 2a] | not regenerated | fully restored
CCC(C)SN1C(=O)C(OC)C1c1ccccc1Cl (stereo not shown) [Compound 2g] | not regenerated | fully restored

Source: patent US8722937B2 (priority 2006, dated 2014)
